Compound in this test: Nc1nc2c(ncn2[C@@H]2O[C@H](COP(=O)(O)OP(=O)(O)OP(=O)(O)O)[C@@H](O)[C@H]2O)c(=O)[nH]1 [guanosine triphosphate]
The test can be described thus: NP40-soluble protein abundance relative to vehicle (solubility fold change) (ratio); higher = more soluble protein in presence of GTP. The gist of the method:
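Each value is a fold change relative to the detergent-processed vehicle, calculated per replicate from vsn-normalised intensities. Jurkat crude lysate received eight concentrations (0.1 to 10 mM) for 10 min at room temperature and 3 min at 37 °C, then was solubilised in 0.8% NP40 with benzonase (60 min, 4 °C). The ultracentrifuged supernatant was TMT-labelled and run by LC-MS/MS in three independent experiments.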

Amino acid sequences for entries named in this document (tags omitted). A change or cut given only in a name is not applied to a line headed by its entry.
UniProt P56962: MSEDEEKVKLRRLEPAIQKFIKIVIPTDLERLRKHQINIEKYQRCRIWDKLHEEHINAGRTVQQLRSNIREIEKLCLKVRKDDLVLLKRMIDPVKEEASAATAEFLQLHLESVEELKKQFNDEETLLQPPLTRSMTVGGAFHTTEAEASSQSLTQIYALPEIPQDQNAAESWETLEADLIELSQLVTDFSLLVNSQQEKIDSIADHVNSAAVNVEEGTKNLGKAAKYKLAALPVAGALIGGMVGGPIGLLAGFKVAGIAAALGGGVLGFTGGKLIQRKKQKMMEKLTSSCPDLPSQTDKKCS
UniProt P80217: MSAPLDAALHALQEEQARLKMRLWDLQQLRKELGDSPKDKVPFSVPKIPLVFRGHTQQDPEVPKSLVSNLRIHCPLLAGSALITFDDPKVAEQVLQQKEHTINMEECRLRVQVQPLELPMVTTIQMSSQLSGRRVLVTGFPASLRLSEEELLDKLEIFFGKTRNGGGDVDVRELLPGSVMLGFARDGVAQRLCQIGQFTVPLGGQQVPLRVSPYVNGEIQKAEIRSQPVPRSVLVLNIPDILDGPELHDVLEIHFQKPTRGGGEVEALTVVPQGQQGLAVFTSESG
UniProt P78347: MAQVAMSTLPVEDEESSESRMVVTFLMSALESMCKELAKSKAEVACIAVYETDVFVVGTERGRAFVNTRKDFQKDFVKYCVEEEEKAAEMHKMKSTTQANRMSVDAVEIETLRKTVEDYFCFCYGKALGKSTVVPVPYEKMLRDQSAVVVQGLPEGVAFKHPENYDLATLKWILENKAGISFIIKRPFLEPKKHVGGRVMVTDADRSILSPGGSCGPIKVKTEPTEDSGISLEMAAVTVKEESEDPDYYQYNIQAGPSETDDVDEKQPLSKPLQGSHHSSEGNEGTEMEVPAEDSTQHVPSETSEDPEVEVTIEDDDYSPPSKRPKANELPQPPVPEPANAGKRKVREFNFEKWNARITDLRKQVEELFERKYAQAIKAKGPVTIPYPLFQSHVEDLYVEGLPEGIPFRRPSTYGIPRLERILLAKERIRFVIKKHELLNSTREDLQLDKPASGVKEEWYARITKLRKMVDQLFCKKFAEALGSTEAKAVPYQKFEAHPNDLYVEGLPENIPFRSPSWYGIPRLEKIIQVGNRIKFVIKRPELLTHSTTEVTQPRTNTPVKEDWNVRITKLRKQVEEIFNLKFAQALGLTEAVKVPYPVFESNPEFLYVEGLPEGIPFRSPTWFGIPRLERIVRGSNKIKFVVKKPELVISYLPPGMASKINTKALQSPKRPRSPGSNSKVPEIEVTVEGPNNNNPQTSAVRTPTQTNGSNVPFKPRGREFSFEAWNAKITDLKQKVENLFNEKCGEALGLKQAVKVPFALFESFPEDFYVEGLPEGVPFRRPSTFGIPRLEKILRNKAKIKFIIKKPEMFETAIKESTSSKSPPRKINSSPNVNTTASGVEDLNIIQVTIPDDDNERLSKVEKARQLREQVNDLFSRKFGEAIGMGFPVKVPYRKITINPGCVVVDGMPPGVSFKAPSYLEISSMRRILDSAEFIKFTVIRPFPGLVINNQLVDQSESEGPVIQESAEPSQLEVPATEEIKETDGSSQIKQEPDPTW
UniProt P78536: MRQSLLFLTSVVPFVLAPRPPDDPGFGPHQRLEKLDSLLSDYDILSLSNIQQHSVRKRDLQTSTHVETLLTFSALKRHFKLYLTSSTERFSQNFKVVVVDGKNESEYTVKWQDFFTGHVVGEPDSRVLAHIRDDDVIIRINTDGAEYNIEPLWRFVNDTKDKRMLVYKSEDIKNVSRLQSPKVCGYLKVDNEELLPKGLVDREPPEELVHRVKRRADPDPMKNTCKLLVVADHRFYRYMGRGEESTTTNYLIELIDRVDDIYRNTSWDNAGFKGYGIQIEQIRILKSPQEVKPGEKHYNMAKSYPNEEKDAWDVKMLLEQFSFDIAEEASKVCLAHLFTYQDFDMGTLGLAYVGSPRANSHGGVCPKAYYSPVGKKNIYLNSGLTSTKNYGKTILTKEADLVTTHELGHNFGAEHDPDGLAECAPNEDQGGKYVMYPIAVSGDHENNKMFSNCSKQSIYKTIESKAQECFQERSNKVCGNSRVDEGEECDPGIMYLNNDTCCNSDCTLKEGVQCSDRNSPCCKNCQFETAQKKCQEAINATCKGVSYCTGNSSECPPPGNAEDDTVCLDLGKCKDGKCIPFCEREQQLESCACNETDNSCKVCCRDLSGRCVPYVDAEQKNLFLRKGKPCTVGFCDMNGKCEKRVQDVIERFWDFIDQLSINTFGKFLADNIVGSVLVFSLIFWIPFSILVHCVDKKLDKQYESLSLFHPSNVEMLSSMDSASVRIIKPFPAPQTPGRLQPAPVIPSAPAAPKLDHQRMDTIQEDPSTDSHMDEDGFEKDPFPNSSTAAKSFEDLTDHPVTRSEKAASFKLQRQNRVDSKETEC
UniProt P51858: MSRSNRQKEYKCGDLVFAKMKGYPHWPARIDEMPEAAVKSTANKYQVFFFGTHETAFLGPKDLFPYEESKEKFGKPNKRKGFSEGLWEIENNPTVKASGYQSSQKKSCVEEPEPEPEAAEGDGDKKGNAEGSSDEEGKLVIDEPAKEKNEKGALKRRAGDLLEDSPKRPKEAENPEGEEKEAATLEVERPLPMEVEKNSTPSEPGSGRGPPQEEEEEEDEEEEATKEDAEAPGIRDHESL
UniProt P52788: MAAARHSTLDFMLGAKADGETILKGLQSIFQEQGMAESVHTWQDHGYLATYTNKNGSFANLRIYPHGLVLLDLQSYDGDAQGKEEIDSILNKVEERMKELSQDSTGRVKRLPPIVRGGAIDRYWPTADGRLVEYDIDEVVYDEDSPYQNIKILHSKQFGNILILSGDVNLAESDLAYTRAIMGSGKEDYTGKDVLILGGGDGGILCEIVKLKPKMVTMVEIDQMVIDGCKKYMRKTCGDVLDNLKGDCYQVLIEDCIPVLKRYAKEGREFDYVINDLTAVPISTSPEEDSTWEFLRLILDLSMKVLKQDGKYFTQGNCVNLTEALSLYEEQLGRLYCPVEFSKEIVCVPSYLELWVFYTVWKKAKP
UniProt P53007, whole entry, looked up: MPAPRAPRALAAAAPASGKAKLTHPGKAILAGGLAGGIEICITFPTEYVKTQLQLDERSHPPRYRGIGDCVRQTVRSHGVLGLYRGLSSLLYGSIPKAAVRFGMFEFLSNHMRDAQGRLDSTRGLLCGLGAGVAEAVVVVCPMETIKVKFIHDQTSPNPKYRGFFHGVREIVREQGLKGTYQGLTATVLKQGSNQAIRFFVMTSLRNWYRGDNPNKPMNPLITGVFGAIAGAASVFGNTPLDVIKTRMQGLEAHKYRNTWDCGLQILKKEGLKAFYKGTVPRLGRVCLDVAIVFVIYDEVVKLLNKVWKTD
UniProt P51148: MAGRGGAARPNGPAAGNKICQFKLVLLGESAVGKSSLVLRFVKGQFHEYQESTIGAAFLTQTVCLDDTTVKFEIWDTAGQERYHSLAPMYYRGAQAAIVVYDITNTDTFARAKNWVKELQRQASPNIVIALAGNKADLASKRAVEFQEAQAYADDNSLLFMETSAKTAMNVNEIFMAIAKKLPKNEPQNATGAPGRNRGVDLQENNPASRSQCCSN
UniProt P52333: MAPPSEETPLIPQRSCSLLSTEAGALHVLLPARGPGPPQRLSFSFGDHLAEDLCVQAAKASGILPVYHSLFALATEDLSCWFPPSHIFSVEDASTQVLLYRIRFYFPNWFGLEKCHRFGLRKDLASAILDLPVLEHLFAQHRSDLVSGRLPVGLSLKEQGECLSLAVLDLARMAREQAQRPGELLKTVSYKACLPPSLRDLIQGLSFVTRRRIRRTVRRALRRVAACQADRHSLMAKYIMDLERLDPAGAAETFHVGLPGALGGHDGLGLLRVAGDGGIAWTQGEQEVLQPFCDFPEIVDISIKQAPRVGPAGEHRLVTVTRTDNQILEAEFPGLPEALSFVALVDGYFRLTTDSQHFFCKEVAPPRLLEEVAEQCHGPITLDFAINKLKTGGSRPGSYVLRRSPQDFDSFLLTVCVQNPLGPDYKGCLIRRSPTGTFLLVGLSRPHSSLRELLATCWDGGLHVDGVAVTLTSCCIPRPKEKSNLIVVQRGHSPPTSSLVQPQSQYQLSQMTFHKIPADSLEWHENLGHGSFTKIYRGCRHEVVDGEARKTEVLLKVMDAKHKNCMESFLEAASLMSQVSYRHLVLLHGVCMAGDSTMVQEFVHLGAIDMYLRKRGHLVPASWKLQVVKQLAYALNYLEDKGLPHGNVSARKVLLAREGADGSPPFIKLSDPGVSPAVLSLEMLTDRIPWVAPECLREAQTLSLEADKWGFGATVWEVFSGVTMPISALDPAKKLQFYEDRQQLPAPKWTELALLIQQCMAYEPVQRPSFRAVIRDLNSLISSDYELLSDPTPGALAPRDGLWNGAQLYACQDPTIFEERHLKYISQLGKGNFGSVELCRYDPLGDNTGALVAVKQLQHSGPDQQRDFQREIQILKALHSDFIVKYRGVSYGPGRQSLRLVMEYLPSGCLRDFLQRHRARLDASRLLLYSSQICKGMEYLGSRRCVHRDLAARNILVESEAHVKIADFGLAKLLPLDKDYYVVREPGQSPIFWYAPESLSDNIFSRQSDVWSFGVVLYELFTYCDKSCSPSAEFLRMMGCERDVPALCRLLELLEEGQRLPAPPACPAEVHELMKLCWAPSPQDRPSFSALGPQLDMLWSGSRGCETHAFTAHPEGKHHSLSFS
UniProt P78346: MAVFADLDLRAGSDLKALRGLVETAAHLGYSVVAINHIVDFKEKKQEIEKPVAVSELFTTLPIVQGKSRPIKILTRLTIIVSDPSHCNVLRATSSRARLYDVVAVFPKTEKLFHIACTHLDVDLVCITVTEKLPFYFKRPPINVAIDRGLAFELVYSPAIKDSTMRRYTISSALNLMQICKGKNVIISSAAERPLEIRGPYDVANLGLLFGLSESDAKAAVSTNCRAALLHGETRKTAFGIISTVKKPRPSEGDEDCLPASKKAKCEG
UniProt P68371, whole entry: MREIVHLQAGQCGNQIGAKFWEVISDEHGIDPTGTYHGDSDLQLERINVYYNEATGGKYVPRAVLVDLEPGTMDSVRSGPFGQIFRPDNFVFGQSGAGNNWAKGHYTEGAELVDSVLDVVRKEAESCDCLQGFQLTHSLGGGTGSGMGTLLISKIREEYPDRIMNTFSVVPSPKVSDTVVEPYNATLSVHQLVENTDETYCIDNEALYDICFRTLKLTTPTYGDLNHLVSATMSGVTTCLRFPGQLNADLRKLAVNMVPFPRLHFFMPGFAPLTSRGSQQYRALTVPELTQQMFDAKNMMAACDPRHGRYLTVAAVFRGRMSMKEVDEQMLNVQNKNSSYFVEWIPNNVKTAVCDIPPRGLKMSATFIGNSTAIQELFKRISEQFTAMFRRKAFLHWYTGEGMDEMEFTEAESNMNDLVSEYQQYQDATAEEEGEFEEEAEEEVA

± gives the standard deviation of the averaged measurements. This is one part of the list.

Take UniProt P62854: the NP40-soluble protein abundance was 0.922 ± 0.046 (concentration: 0.1mM); 0.897 ± 0.063 (concentration: 0.5mM); 0.96 ± 0.11 (concentration: 1mM); 0.961 ± 0.13 (concentration: 2mM); 0.944 ± 0.14 (concentration: 4mM); 0.905 ± 0.15 (concentration: 6mM). In addition, the NP40-soluble protein abundance was determined as 0.697 ± 0.11 (concentration: 8mM) and 0.973 ± 0.17 (concentration: 10mM).

With STX17 (UniProt P56962), the NP40-soluble protein abundance came out at 0.962 ± 0.032 (concentration: 0.1mM); 0.938 ± 0.047 (concentration: 0.5mM); 0.983 ± 0.042 (concentration: 1mM); 0.979 ± 0.1 (concentration: 2mM); 0.942 ± 0.11 (concentration: 4mM); 0.942 ± 0.06 (concentration: 6mM). In addition, the NP40-soluble protein abundance reads like this: (concentration: 8mM) 0.95 ± 0.063; (concentration: 10mM) 0.967 ± 0.095.

UniProt P80217 and related entries: the NP40-soluble protein abundance runs as follows: (concentration: 0.1mM) 0.97 ± 0.043; (concentration: 0.5mM) 1.01 ± 0.063; (concentration: 1mM) 0.926 ± 0.044; (concentration: 2mM) 0.902 ± 0.076; (concentration: 4mM) 0.877 ± 0.059; (concentration: 6mM) 0.911 ± 0.067. Besides, the NP40-soluble protein abundance reads like this: (concentration: 8mM) 0.934 ± 0.052; (concentration: 10mM) 0.938 ± 0.051.

Consider UniProt P78347 and related entries, for which the NP40-soluble protein abundance was found to be 1 ± 0.0066 (concentration: 0.1mM); 1.01 ± 0.022 (concentration: 0.5mM); 0.989 ± 0.013 (concentration: 1mM); 0.997 ± 0.021 (concentration: 2mM); 1.05 ± 0.021 (concentration: 4mM); 1.03 ± 0.044 (concentration: 6mM). Moreover, the NP40-soluble protein abundance runs as follows: (concentration: 8mM) 1.05 ± 0.058; (concentration: 10mM) 1.02 ± 0.025.

Regarding UniProt P56181-2|P56181, the NP40-soluble protein abundance runs as follows: (concentration: 0.1mM) 0.987 ± 0.04; (concentration: 0.5mM) 1.03 ± 0.032; (concentration: 1mM) 1.09 ± 0.072; (concentration: 2mM) 1.1 ± 0.071; (concentration: 4mM) 1.1 ± 0.091; (concentration: 6mM) 1.12 ± 0.091. Also, the NP40-soluble protein abundance reads like this: (concentration: 8mM) 1.22 ± 0.16; (concentration: 10mM) 1.23 ± 0.18.

In the case of ADAM17 (UniProt P78536), the NP40-soluble protein abundance was 0.992 ± 0.042 (concentration: 0.1mM); 1.04 ± 0.083 (concentration: 0.5mM); 1.02 ± 0.076 (concentration: 1mM); 1.01 ± 0.035 (concentration: 2mM); 0.97 ± 0.048 (concentration: 4mM); 0.991 ± 0.13 (concentration: 6mM). Also, the NP40-soluble protein abundance (concentration: 8mM) was determined as 0.948 ± 0.058 and the NP40-soluble protein abundance (concentration: 10mM) was found to be 1.02 ± 0.082.

Regarding UniProt P50851-2, the NP40-soluble protein abundance runs as follows: (concentration: 0.1mM) 1.02 ± 0.011; (concentration: 0.5mM) 1.07 ± 0.015; (concentration: 1mM) 1.006 ± 0.0086; (concentration: 2mM) 1.01 ± 0.018; (concentration: 4mM) 0.984 ± 0.026; (concentration: 6mM) 0.99 ± 0.021. Besides, the NP40-soluble protein abundance came out at 0.981 ± 0.011 (concentration: 8mM) and 0.966 ± 0.03 (concentration: 10mM).

As for HDGF (UniProt P51858), the NP40-soluble protein abundance reads like this: (concentration: 0.1mM) 0.863 ± 0.067; (concentration: 0.5mM) 0.898 ± 0.086; (concentration: 1mM) 0.914 ± 0.058; (concentration: 2mM) 0.861 ± 0.11; (concentration: 4mM) 0.817 ± 0.088; (concentration: 6mM) 0.886 ± 0.11. Further, the NP40-soluble protein abundance reads like this: (concentration: 8mM) 0.911 ± 0.057; (concentration: 10mM) 0.913 ± 0.055.

Take SMS (UniProt P52788): the NP40-soluble protein abundance (concentration: 0.1mM) worked out at 0.99 ± 0.02; the NP40-soluble protein abundance (concentration: 0.5mM) amounted to 0.996 ± 0.021; the NP40-soluble protein abundance (concentration: 1mM) worked out at 0.97 ± 0.019; the NP40-soluble protein abundance (concentration: 2mM) turned out to be 0.944 ± 0.034; the NP40-soluble protein abundance (concentration: 4mM) worked out at 0.918 ± 0.02; the NP40-soluble protein abundance (concentration: 6mM) came out at 0.928 ± 0.038. The NP40-soluble protein abundance was 0.922 ± 0.022 (concentration: 8mM) and 0.917 ± 0.021 (concentration: 10mM).

Turning to SLC25A1 (UniProt P53007), the NP40-soluble protein abundance (concentration: 0.1mM) was 1.09 ± 0.064; the NP40-soluble protein abundance (concentration: 0.5mM) stood at 1.08 ± 0.048; the NP40-soluble protein abundance (concentration: 1mM) came out at 0.989 ± 0.057; the NP40-soluble protein abundance (concentration: 2mM) is 1.1 ± 0.11; the NP40-soluble protein abundance (concentration: 4mM) was 1.1 ± 0.11; the NP40-soluble protein abundance (concentration: 6mM) came out at 1.14 ± 0.19. The NP40-soluble protein abundance by setting is: (concentration: 8mM) 1.08 ± 0.04; (concentration: 10mM) 1.09 ± 0.073.

On to UniProt P51148 and related entries, for which the NP40-soluble protein abundance reads like this: (concentration: 0.1mM) 0.87 ± 0.097; (concentration: 0.5mM) 0.944 ± 0.058; (concentration: 1mM) 0.808 ± 0.064; (concentration: 2mM) 0.829 ± 0.018; (concentration: 4mM) 0.772 ± 0.029; (concentration: 6mM) 0.826 ± 0.024. The NP40-soluble protein abundance was found to be 0.734 ± 0.076 (concentration: 8mM) and 0.795 ± 0.069 (concentration: 10mM).

UniProt P62280: the NP40-soluble protein abundance stood at 0.928 ± 0.011 (concentration: 0.1mM); 1.01 ± 0.065 (concentration: 0.5mM); 0.997 ± 0.16 (concentration: 1mM); 0.931 ± 0.19 (concentration: 2mM); 0.848 ± 0.25 (concentration: 4mM); 0.82 ± 0.24 (concentration: 6mM). The NP40-soluble protein abundance runs as follows: (concentration: 8mM) 0.716 ± 0.2; (concentration: 10mM) 0.767 ± 0.26.

For the target UniProt P52333 and related entries, the NP40-soluble protein abundance reads like this: (concentration: 0.1mM) 0.957 ± 0.079; (concentration: 0.5mM) 0.974 ± 0.021; (concentration: 1mM) 0.947 ± 0.012; (concentration: 2mM) 0.91668 ± 0.00076; (concentration: 4mM) 0.89192 ± 0.00027; (concentration: 6mM) 0.9404 ± 0.0068. Further, the NP40-soluble protein abundance came out at 0.885 ± 0.06 (concentration: 8mM) and 0.879 ± 0.024 (concentration: 10mM).

For the target UniProt P78346 and related entries, the NP40-soluble protein abundance by setting is: (concentration: 0.1mM) 1.13 ± 0.14; (concentration: 0.5mM) 1.06 ± 0.17; (concentration: 1mM) 1.09 ± 0.13; (concentration: 2mM) 1.15 ± 0.18; (concentration: 4mM) 1.16 ± 0.18; (concentration: 6mM) 1.15 ± 0.18. Moreover, the NP40-soluble protein abundance by setting is: (concentration: 8mM) 1.17 ± 0.15; (concentration: 10mM) 1.13 ± 0.16.

For UniProt P68371, the NP40-soluble protein abundance stood at 0.929 ± 0.11 (concentration: 0.1mM); 1.03 ± 0.15 (concentration: 0.5mM); 0.955 ± 0.12 (concentration: 1mM); 0.909 ± 0.11 (concentration: 2mM); 0.881 ± 0.19 (concentration: 4mM); 0.912 ± 0.13 (concentration: 6mM). Moreover, the NP40-soluble protein abundance (concentration: 8mM) turned out to be 0.951 ± 0.14 and the NP40-soluble protein abundance (concentration: 10mM) is 0.933 ± 0.18.

The values are drawn from the supplement of paper PMC6411743.
